Results are given in words; binding and its absence hold for the method and conditions named. In cells and extracts the contact can be indirect. Here binding means that the protein was enriched with, or labelled near, the bait; the list need not be complete.
Target: Flag-tagged IDH1 wild type (isocitrate dehydrogenase 1) (human) (UniProt O75874)
Assay: affinity purification with mass spectrometry; Flag beads-bound proteins from Ishikawa cells with Flag-IDH1, with or without MPA for 24 h; trypsin digest, Q Exactive Plus

binding: binds
B1: OCT6 (protein, UniProt Q03052 1-451)
chain: MATTAQYLPRGPGGGAGGTGPLMHPDAAAAAAAAAAAERLHAGAAYREVQKLMHHEWLGAGAGHPVGLAHPQWLPTGGGGGGDWAGGPHLEHGKAGGGGTGRADDGGGGGGFHARLVHQGAAHAGAAWAQGSTAHHLGPAMSPSPGASGGHQPQPLGLYAQAAYPGGGGGGLAGMLAAGGGGAGPGLHHALHEDGHEAQLEPSPPPHLGAHGHAHGHAHAGGLHAAAAHLHPGAGGGGSSVGEHSDEDAPSSDDLEQFAKQFKQRRIKLGFTQADVGLALGTLYGNVFSQTTICRFEALQLSFKNMCKLKPLLNKWLEETDSSSGSPTNLDKIAAQGRKRKKRTSIEVGVKGALESHFLKCPKPSAHEITGLADSLQLEKEVVRVWFCNRRQKEKRMTPAAGAGHPPMDDVYAPGELGPGGGGASPPSAPPPPPPAALHHHHHHTLPGSVQ

Source: article PMC11187910
